Test results as given in doi:10.1101/2024.11.12.621593.
Results are given in words; binding and its absence hold for the method and conditions named. Binding seen in cells or lysates may run through a third protein. Some results given as binding are weak or reduced against the parent protein; the word gives no strength.

Protein sequences, listed by entry. Tags and fused reporters are not part of them.
UniProt Q92547: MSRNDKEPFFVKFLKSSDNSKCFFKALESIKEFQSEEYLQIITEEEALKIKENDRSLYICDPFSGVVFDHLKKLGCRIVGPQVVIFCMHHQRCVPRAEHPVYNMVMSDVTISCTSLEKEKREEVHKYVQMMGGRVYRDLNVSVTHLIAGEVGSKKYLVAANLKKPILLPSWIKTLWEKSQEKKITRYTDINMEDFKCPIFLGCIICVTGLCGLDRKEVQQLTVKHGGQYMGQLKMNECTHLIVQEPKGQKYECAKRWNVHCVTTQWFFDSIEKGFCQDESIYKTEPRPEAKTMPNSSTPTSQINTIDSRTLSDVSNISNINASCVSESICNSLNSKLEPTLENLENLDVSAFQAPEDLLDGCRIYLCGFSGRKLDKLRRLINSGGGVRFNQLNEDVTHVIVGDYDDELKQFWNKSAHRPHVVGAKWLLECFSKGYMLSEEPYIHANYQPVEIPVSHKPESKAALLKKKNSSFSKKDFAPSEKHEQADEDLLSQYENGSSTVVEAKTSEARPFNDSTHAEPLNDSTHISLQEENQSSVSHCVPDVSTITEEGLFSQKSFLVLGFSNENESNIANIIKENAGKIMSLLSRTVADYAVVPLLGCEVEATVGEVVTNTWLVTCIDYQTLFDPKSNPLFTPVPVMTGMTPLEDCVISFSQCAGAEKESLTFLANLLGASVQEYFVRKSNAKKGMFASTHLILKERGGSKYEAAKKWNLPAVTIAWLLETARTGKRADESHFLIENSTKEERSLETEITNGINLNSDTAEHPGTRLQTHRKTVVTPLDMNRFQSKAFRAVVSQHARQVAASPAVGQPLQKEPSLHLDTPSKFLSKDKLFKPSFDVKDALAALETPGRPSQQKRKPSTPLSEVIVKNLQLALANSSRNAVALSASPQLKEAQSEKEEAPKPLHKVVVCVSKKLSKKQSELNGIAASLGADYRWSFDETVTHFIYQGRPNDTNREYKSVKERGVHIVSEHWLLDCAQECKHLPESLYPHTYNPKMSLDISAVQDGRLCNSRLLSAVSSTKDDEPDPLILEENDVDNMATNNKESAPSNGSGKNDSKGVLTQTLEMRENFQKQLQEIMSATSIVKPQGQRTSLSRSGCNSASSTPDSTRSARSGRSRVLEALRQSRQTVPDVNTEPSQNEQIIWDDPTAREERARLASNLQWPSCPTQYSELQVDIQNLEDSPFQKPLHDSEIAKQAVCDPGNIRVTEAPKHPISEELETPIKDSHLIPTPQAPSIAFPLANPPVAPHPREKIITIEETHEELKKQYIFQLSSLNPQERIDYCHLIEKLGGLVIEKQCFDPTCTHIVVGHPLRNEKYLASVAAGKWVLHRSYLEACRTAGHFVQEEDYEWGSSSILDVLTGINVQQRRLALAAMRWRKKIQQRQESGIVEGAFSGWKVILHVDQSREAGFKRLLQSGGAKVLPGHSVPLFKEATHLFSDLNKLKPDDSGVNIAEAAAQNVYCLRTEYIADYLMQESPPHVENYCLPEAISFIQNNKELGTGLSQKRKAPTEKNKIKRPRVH
UniProt P54132: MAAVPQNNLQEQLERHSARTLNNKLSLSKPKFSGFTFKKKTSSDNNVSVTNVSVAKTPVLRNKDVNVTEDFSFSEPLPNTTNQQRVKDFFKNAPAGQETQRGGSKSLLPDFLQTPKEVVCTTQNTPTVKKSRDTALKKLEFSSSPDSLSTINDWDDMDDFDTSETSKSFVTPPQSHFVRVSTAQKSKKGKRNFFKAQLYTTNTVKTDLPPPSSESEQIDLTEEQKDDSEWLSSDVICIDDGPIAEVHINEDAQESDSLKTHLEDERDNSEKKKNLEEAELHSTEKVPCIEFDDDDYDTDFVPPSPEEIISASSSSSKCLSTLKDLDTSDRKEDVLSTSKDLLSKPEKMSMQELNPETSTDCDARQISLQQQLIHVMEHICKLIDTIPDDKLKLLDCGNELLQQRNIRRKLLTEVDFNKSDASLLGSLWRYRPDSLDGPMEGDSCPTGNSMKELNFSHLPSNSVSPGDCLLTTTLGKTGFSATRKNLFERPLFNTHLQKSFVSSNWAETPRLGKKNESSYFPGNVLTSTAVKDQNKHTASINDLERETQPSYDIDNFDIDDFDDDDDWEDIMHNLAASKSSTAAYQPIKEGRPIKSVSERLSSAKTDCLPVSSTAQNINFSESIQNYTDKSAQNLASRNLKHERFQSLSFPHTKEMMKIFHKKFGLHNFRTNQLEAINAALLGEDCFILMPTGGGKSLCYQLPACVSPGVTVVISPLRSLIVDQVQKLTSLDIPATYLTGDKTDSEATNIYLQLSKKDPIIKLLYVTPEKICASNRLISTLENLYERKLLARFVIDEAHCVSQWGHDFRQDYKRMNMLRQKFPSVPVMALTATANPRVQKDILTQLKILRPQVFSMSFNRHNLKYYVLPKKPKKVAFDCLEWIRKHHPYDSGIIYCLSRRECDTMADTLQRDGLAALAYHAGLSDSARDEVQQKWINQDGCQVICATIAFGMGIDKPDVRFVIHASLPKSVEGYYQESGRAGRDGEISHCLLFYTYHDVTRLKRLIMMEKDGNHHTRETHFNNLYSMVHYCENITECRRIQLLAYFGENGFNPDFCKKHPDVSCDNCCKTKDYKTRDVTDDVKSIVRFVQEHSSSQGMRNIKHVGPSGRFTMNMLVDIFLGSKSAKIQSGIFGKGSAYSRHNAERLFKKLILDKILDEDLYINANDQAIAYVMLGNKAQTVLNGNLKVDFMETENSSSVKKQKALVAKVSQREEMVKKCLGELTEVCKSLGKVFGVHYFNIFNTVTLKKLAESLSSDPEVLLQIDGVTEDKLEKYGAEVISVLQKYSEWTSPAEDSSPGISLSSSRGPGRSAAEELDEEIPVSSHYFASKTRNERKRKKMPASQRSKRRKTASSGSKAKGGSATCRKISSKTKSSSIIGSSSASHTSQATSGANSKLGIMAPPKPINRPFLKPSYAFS
UniProt Q8IY92: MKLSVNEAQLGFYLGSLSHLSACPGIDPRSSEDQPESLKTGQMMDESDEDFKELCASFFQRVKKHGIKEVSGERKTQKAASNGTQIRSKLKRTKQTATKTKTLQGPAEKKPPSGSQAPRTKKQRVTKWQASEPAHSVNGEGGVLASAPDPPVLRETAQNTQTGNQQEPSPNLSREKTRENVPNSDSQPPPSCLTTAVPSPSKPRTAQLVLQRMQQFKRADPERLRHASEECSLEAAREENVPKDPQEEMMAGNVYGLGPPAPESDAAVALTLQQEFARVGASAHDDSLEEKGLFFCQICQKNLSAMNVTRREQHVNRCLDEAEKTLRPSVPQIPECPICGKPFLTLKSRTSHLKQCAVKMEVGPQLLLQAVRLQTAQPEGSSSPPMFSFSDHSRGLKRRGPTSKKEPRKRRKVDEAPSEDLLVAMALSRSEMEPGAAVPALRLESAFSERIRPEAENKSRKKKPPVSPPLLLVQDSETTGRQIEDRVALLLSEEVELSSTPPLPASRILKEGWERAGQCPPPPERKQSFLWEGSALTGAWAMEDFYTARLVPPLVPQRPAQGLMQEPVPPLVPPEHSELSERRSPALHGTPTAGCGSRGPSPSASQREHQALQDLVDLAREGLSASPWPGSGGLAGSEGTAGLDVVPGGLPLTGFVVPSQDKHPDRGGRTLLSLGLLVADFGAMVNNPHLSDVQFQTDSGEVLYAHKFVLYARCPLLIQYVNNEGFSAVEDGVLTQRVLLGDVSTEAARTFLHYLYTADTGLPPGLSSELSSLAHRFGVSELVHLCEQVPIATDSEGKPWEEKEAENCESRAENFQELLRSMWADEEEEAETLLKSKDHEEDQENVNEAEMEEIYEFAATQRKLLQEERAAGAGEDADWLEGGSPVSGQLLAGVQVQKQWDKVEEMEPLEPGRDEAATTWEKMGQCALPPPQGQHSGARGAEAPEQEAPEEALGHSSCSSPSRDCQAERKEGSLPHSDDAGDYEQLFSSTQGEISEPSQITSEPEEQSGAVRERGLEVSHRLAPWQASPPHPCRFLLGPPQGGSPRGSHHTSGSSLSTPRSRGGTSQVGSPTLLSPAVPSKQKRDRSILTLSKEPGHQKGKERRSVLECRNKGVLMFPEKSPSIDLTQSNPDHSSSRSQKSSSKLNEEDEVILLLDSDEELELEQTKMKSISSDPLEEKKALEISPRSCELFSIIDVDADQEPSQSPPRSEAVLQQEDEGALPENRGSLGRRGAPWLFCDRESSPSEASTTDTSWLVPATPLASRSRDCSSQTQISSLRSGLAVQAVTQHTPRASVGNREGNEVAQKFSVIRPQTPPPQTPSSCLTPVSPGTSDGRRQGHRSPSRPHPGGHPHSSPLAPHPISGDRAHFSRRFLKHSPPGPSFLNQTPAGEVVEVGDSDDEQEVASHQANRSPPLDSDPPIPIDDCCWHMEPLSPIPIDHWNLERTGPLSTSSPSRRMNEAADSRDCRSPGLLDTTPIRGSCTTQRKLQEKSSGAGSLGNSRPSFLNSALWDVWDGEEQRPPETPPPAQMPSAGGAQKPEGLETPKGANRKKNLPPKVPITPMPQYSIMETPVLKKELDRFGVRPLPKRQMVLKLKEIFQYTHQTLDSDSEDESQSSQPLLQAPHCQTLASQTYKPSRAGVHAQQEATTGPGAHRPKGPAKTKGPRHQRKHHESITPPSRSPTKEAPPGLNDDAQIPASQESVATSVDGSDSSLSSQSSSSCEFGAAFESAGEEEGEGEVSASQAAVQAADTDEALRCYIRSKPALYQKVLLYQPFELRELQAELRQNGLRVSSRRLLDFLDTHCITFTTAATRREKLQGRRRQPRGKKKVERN

Target: eGFP-TOPBP1 WT (human) (UniProt Q92547)
Test: co-IP

Row | Substance | binding
1 | BLM (endogenous) (from UniProt P54132 1-1417) | binds
2 | SLX4 (endogenous) (from UniProt Q8IY92 1-1834) | binds
